Laboratory results: patent US5919761A, “Peptides for heparin and low molecular weight heparin anticoagulation reversal” (The Board of Regents of the University of Michigan, priority 1995, dated 1999)
At least one peptide structure holds a part that was inferred or is arguable (an end, a ring closure or a residue). Peptide text beside a SMILES is read from it.

Tested on: standard, unfractionated heparin
Assay: Percent reversal of standard heparin anticoagulation by variant peptides and protamine, in vivo canine study, coagulation tests
Parameters: species or system dogs
Details: for Percent reversal of heparin anticoagulation, ACT: heparin 150 IU/kg IV, agent 1.5 mg/kg IV over 10 seconds
Method: Data are expressed as a mean ±1 SD. Statistical analysis using linear regression for determination of correlation coefficients, and analysis of variance (ANOVA) or unpaired two-way Student's t-test; p<0.05 was accepted as statistically significant.
Anticoagulation reversal was assessed by a number of standard coagulation tests performed upon samples of venous blood: activated clotting time (ACT), prothrombin time (PT), activated partial thromboplastin time (aPTT), thrombin clotting time (TCT), heparin concentration by assay for FXa inhibitory activity (FXa), white cell count (WBC), and platelet counts (PLT). Measurements were made 3 minutes prior to heparin reversal (baseline) and 3 minutes and 30 minutes post-administration of the heparin reversal agent. The "Heparin" row sets forth the observed reversal as a consequence of expected heparin metabolism or degradation alone.

## NCCCC[C@H](NC(=O)[C@H](CCCCN)NC(=O)[C@H](CCCCN)NC(=O)[C@H](CCCCN)NC(=O)CNC(=O)CNC(=O)[C@H](CCCCN)NC(=O)[C@H](CCCCN)NC(=O)[C@H](CCCCN)NC(=O)[C@H](CCCCN)NC(=O)CNC(=O)CNC(=O)[C@H](CCCCN)NC(=O)[C@H](CCCCN)NC(=O)[C@H](CCCCN)NC(=O)[C@H](CCCCN)NC(=O)CNC(=O)CNC(=O)[C@H](CCCCN)NC(=O)[C@H](CCCCN)NC(=O)[C@H](CCCCN)NC(=O)[C@H](CCCCN)NC(=O)CNC(=O)CNC(=O)[C@H](CCCCN)NC(=O)[C@H](CCCCN)NC(=O)[C@H](CCCCN)NC(=O)[C@H](CCCCN)NC(=O)[C@@H]1CCCN1)C(=O)O [[+20], P(K4 G2)4 K4] (H-PKKKKGGKKKKGGKKKKGGKKKKGGKKKK-OH)
dogs, standard heparin
  in vivo heparin reversal (summary): nearly complete reversal
dogs, 3 min post-administration
  Percent reversal of heparin anticoagulation, ACT: 92%
dogs, 30 min
  Percent reversal of heparin anticoagulation, ACT: 87%
Same study, 3 min
  Percent reversal of heparin anticoagulation, APTT: 91%
  Percent reversal of heparin anticoagulation, FNa: 79%
  Percent reversal of heparin anticoagulation, FXa: 83%
  Percent reversal of heparin anticoagulation, PT: 83%
  Percent reversal of heparin anticoagulation, TCT: 109%
Same study, 30 min
  Percent reversal of heparin anticoagulation, APTT: 91%
  Percent reversal of heparin anticoagulation, FXa: 70%
  Percent reversal of heparin anticoagulation, PT: 80%
  Percent reversal of heparin anticoagulation, TCT: 92%
